In the supplement of paper PMC10849652:
Some of the results follow.

The chains behind the UniProt entries cited, without tags or fusion partners. Where a name states a change or a piece, a line headed by the entry shows the natural chain unless it says otherwise.
UniProt Q9Y4U1: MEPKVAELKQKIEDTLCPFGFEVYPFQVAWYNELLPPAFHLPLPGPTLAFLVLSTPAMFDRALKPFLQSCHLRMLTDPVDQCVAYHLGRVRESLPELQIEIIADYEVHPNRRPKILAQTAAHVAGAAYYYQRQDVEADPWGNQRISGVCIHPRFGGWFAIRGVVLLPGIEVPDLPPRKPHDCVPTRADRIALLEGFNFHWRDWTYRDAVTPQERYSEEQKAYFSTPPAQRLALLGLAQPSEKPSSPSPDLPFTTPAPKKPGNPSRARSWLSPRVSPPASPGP
UniProt Q7Z6M3: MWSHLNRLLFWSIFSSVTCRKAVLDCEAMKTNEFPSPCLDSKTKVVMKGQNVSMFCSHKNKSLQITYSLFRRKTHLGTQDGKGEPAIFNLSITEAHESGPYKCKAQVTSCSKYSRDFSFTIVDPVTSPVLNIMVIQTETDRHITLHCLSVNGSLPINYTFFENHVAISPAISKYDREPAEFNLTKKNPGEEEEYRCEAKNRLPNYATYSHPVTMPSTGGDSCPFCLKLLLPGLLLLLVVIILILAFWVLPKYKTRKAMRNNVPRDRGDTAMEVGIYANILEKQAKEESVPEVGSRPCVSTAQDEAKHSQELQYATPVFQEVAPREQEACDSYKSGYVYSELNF
UniProt Q8TD10: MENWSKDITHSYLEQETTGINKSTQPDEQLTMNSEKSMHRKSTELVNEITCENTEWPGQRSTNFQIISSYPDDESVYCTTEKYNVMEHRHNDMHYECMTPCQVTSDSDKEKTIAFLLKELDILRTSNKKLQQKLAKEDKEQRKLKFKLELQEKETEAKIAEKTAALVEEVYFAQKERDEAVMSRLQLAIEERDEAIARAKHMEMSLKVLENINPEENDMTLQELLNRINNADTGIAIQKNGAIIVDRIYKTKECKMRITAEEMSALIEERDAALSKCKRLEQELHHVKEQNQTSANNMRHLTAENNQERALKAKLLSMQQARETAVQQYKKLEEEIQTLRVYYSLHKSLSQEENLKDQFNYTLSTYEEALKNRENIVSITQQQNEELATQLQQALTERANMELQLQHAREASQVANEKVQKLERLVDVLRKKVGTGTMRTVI
UniProt P16455, whole entry, looked up: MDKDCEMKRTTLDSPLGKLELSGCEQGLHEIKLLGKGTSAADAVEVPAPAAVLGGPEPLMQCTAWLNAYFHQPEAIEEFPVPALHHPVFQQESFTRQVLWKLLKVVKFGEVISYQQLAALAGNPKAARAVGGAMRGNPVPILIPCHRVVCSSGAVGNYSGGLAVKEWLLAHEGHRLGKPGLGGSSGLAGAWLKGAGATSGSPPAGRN
UniProt Q9H8S9: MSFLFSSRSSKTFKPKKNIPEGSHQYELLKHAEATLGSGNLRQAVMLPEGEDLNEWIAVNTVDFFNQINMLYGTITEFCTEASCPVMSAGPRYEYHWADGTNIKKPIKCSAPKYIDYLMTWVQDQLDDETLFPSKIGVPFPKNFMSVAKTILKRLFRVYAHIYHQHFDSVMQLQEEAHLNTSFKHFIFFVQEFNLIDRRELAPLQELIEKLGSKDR
UniProt O96033: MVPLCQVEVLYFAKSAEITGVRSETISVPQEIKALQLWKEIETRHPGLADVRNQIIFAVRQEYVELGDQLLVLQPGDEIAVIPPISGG
UniProt Q7Z3K6: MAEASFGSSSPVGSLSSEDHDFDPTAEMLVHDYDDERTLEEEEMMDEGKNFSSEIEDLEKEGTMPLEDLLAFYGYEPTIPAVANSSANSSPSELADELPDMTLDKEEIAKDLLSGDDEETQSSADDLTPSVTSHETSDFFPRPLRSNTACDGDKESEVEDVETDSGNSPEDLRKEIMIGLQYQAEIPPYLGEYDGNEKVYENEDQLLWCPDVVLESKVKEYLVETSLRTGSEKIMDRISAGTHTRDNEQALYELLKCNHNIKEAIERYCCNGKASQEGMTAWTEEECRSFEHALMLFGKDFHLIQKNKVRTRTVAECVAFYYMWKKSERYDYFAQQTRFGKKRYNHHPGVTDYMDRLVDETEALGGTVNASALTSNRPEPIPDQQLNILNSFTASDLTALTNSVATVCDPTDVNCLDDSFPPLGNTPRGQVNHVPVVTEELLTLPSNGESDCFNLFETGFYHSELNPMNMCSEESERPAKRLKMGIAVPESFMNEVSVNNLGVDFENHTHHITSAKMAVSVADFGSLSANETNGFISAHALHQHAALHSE
UniProt Q99550: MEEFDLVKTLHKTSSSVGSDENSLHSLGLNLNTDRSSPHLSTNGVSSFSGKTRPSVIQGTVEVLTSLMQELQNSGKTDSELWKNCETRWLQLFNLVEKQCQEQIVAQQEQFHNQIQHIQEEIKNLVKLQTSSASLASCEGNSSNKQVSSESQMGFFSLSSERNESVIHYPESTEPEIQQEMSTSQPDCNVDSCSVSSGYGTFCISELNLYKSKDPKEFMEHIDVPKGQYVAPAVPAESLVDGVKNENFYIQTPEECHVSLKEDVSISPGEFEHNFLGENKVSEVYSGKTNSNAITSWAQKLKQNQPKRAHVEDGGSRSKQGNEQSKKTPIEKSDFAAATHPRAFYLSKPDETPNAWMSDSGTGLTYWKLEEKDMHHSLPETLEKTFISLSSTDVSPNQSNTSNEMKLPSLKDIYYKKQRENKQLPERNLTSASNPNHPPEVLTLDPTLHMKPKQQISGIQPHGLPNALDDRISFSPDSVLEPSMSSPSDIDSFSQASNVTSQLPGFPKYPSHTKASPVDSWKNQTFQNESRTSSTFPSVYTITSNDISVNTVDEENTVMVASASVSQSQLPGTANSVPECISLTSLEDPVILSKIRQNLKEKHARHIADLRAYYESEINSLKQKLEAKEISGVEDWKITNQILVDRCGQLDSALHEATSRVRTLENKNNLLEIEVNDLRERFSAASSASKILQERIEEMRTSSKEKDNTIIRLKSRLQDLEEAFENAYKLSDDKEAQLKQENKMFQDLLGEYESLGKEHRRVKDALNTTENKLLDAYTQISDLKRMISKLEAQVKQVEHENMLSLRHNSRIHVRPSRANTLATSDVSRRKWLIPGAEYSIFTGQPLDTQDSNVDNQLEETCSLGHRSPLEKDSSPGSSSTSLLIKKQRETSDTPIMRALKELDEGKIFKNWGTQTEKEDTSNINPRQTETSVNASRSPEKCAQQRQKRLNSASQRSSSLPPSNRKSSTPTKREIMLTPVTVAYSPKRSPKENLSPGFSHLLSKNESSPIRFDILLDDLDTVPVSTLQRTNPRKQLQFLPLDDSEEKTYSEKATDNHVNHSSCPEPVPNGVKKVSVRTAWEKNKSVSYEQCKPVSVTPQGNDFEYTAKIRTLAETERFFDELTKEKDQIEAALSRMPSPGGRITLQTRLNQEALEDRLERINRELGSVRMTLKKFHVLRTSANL
UniProt Q8NDA8: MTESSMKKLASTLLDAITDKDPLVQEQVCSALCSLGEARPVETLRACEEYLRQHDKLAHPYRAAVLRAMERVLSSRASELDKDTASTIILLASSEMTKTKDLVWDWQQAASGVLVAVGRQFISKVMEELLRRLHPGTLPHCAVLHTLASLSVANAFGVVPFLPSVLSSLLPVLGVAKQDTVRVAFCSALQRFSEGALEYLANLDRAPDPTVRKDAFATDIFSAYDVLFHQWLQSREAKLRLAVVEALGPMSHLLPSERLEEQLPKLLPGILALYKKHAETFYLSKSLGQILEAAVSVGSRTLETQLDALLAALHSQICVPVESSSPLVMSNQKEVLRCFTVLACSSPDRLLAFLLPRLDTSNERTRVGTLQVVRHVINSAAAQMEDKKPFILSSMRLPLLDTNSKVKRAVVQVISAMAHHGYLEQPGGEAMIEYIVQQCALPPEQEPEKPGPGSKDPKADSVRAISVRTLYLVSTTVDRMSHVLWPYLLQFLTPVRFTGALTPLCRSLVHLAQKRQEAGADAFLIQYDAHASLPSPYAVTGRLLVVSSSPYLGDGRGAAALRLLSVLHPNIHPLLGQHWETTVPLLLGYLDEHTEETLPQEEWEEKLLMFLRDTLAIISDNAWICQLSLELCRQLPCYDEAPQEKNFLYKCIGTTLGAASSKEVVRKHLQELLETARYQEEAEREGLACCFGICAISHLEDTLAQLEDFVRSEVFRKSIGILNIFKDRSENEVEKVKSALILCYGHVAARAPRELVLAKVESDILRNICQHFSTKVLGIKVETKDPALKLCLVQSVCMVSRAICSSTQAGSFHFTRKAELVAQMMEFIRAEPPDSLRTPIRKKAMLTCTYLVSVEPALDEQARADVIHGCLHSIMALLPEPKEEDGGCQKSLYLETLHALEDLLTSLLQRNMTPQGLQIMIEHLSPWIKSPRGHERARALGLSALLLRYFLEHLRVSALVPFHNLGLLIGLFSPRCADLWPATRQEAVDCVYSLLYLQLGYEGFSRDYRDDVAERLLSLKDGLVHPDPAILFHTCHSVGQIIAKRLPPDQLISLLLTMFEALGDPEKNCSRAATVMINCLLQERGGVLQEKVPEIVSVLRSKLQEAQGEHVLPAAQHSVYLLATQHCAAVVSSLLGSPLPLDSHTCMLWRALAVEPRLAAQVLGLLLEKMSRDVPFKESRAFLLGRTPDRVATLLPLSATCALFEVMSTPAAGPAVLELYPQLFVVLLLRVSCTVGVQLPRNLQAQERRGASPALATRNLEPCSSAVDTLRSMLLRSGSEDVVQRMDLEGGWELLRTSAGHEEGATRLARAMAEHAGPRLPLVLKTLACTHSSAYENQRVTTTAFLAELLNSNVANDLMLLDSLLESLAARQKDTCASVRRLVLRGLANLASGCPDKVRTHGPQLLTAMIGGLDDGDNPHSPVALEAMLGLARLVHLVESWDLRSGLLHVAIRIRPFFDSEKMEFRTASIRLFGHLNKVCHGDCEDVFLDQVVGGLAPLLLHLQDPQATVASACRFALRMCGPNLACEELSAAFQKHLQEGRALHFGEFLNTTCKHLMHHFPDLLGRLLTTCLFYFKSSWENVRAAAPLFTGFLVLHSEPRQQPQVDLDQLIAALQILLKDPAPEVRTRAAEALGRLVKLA
UniProt P58340: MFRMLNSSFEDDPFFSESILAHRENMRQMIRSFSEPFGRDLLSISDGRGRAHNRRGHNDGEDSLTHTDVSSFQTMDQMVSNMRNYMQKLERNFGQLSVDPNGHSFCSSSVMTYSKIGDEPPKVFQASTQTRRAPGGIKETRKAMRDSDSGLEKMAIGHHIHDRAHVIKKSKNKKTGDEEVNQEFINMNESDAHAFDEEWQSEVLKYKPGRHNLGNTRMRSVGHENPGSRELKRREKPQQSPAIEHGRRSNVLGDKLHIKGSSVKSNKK
UniProt Q8N344: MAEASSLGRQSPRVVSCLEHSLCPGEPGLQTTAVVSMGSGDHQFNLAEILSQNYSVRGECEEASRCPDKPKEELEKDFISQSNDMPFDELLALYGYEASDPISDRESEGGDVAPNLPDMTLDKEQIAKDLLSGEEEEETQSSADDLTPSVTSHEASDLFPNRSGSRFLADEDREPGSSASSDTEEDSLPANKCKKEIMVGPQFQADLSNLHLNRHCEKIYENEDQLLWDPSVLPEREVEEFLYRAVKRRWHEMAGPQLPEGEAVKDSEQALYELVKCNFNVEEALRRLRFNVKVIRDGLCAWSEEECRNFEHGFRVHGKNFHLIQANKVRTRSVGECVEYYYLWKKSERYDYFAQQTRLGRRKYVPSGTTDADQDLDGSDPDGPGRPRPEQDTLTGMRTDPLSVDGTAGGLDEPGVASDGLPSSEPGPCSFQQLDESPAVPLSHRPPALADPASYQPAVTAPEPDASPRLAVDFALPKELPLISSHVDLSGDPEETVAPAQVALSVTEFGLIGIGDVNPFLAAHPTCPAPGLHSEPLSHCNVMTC
UniProt Q7L4E1: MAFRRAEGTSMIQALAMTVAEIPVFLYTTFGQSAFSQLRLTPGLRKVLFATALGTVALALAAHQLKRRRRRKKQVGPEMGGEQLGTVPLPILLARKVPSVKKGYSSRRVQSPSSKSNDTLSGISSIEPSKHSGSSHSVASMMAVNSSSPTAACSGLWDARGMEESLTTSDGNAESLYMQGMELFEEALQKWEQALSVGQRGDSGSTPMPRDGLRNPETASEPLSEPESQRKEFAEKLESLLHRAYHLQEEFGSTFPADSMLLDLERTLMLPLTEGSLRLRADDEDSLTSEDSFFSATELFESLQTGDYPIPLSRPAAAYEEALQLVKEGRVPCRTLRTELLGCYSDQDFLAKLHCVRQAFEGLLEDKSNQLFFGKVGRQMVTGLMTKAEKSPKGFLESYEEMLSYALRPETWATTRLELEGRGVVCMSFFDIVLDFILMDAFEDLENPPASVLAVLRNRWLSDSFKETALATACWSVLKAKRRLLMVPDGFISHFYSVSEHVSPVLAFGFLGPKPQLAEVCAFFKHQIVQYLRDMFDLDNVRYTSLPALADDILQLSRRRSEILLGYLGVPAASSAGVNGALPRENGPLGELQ

How the values were obtained:
Test in all cases: log2 fold change, soluble protein after heating vs DMSO (PISA); higher = thermal stabilisation; K562 lysate, 10 uM; active = over 0.2 and 3.5 SD of the protein, either way, in both replicates (recomputed)
ibrutinib = compound: C=CC(=O)N1CCC[C@@H](n2nc(-c3ccc(Oc4ccccc4)cc3)c3c(N)ncnc32)C1 [ibrutinib]
Outline: (§1)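 Dounce homogenisation of K562 pellets in PBS pH 7.4 with 1 mM MgCl2 produced a crude extract, used at 1 mg/mL protein. Exposure to 10 μM compound lasted 30 min, and aliquots were then heated for 3 min across 48°C-58°C, pooled and brought to 0.5% NP-40 at 4°C. The supernatant after 21,000xg for 90 min was quantified by TMTpro 16plex LC-MS/MS with channel sums equalised. Duplicate values are given as log-two fold change in thermal stability relative to solvent controls.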

ralimetinib = compound: CC(C)(C)Cn1c(N)nc2ccc(-c3[nH]c(C(C)(C)C)nc3-c3ccc(F)cc3)nc21 [ralimetinib]
Outline: as §1

[1] = compound: CC(C)(O)CC(=O)NCCn1ccc2ncnc(Nc3ccc(Oc4cccc(C(F)(F)F)c4)c(Cl)c3)c21
Outline: as §1

[2] = compound: CC1=C(C(CC(=O)N1)C2=CC=C(C=C2)C(F)(F)F)C(=O)NC3=C(C=C4C(=C3)C=NN4)F
Outline: as §1

[3] = compound: CC1=C(C2=C(C=C1)C(=O)C3=CC=CC=C3N2CCCN)C
Outline: as §1

[4] = compound: CC1=C(C=C(C=C1)NC(=O)C2=CC(=CC=C2)N(C)C)NC(=O)C3=CC=C(C=C3)O
Outline: as §1

vemurafenib = compound: CCCS(=O)(=O)Nc1ccc(F)c(C(=O)c2c[nH]c3ncc(-c4ccc(Cl)cc4)cc23)c1F [vemurafenib]
Outline: as §1

barasertib = compound: CCN(CCCOc1ccc2c(Nc3cc(CC(=O)Nc4cccc(F)c4)[nH]n3)ncnc2c1)CCOP(=O)(O)O [barasertib]
Outline: as §1

[5] = compound: CCn1c(C(=O)N(C2CC2)C2CC2)cc2c3c(ncn3C)c(Nc3cc(C)n(C)n3)nc21
Outline: as §1

[6] = compound: CCn1cc(-c2ccnc3[nH]c(-c4cccc(CN(C)C)c4)cc23)c(-c2ccc(NC(=O)N(C)C)cc2)n1
Outline: as §1

[7] = compound: CN1CCC(CNc2ccc3ncc(-c4cccc(OC(F)(F)F)c4)n3n2)CC1
Outline: as §1

saracatinib = compound: CN1CCN(CCOc2cc(OC3CCOCC3)c3c(Nc4c(Cl)ccc5c4OCO5)ncnc3c2)CC1 [saracatinib]
Outline: as §1

[8] = compound: CC(C)C1=C2N=C(C=C(N2N=C1)NCC3=CC=CC=C3)NCCCCCCN
Outline: as §1

[9] = compound: CC1=C(C=C(C=C1)NC(=O)C2=CC(=CC=C2)C(C)(C)C#N)NC3=CC4=C(C=C3)N=CN(C4=O)C
Outline: as §1

[10] = compound: CC[C@@H]1C(=O)N(C)c2cnc(Nc3ccc(C(=O)NC4CCN(C)CC4)cc3OC)nc2N1C1CCCC1
Outline: as §1

sotrastaurin = compound: CN1CCN(c2nc(C3=C(c4c[nH]c5ccccc45)C(=O)NC3=O)c3ccccc3n2)CC1 [sotrastaurin]
Outline: as §1

[11] = compound: CC(=O)c1cnc2ccc(-c3cc(Cl)c(O)c(Cl)c3)nc2c1N[C@H]1CC[C@H](CN(C)C)CC1
Outline: as §1

[12] = compound: CC1=CC=C(C=C1)SC2=C3C=C(SC3=CN=C2)C(=O)N
Outline: as §1

[13] = compound: CCCS(=O)(=O)Nc1ccc(F)c(C(=O)c2c[nH]c3ncc(Cl)cc23)c1F
Outline: as §1

volasertib = compound: CC[C@@H]1C(=O)N(C)c2cnc(Nc3ccc(C(=O)N[C@H]4CC[C@H](N5CCN(CC6CC6)CC5)CC4)cc3OC)nc2N1C(C)C [volasertib]
Outline: as §1

Measured: log2 fold change

MMACHC (UniProt Q9Y4U1)
inactive: ibrutinib 0.025 | ralimetinib -0.038 | [1] 0.021 | [2] 0.103 | [3] -0.188 | [4] -0.149 | vemurafenib -0.027 | barasertib 0.192 | [5] 0.033 | [6] -0.14 | [7] 0.201 | saracatinib 0.215

MILR1 (UniProt Q7Z6M3)
inactive: ralimetinib -0.083 | [1] -0.059 | [8] 0.212 | [9] 0.023 | [4] 0.065 | vemurafenib -0.024 | [10] 0.193 | [5] -0.044 | sotrastaurin 0.017

MRE11 (UniProt F8W7U8)
inactive: [11] 0.007 | [12] -0.074 | [13] 0.109 | volasertib 0.097

MR1 (UniProt Q95460)
inactive: ibrutinib -0.026 | [8] -0.059 | [3] -0.252 | vemurafenib 0.174 | barasertib -0.027 | [10] 0.03 | saracatinib -0.099

MIPOL1 (UniProt Q8TD10)
inactive: ibrutinib 0.099 | [11] 0.175 | ralimetinib -0.032 | [1] -0.022 | [8] -0.067 | [3] -0.068 | [9] 0.046 | [4] 0.05 | [12] -0.064 | [13] -0.052 | barasertib 0.035 | [10] 0.319 | volasertib -0.038 | [5] 0.073 | [6] 0.042 | [7] -0.117 | saracatinib -0.096 | sotrastaurin 0.028

MITF (UniProt O75030)
inactive: ralimetinib 0.043 | [1] 0.012 | [8] 0.064 | [3] 0.053 | [9] -0.018 | [4] 0.01 | vemurafenib -0.031 | [10] 0.037 | [5] 0.008 | [6] -0.058 | [7] -0.014 | saracatinib -0.057 | sotrastaurin -0.088

MPDZ (UniProt O75970)
inactive: [11] 0.264 | ralimetinib 0.024 | [1] -0.157 | [8] -0.015 | [2] -0.173 | [3] 0.062 | [9] 0.057 | [4] 0.076 | [12] -0.029 | vemurafenib 0.059 | [13] 0.03 | [10] 0 | volasertib -0.026 | [5] -0.115 | [6] 0.129 | [7] -0.017 | saracatinib 0.088 | sotrastaurin 0.209

MOCS3 (UniProt O95396)
inactive: ibrutinib 0.045 | ralimetinib -0.016 | [1] -0.014 | [8] -0.018 | [2] 0.056 | [3] -0.04 | [9] 0.079 | [4] 0.001 | vemurafenib -0.12 | barasertib -0.018 | [10] -0.038 | [5] 0.037 | [6] -0.273 | [7] 0.264 | saracatinib 0.06 | sotrastaurin 0.11

MGMT (UniProt P16455)
inactive: ralimetinib -0.016 | [1] 0.064 | [3] 0.09 | [4] 0.115 | [5] 0.014 | saracatinib -0.205

MIDEAS, A0A1C7CYX1
inactive: [11] 0 | ralimetinib -0.004 | [1] 0.044 | [8] -0.124 | [3] 0.15 | [9] -0.23 | [4] -0.22 | [12] 0.012 | [13] -0.021 | volasertib -0.056 | [5] 0.102 | saracatinib 0.261 | sotrastaurin -0.062

MRAS (UniProt O14807)
inactive: ibrutinib 0.047 | [11] -0.019 | [8] -0.044 | [2] 0.035 | [3] -0.374 | [9] -0.032 | [12] 0.049 | vemurafenib 0.003 | [13] 0.05 | barasertib -0.044 | [10] 0.058 | volasertib 0.025 | [6] 0.217 | [7] -0.061 | saracatinib 0.117 | sotrastaurin 0

MNT (UniProt Q99583)
inactive: [11] -0.05 | ralimetinib 0.038 | [1] -0.035 | [8] 0.026 | [3] -0.215 | [9] 0.024 | [4] 0.048 | [12] -0.017 | vemurafenib -0.014 | [13] 0.006 | [10] 0.155 | volasertib -0.012 | [5] -0.033 | [6] 0.012 | [7] 0.044 | saracatinib -0.127 | sotrastaurin -0.034

MOB1A (UniProt Q9H8S9)
inactive: vemurafenib 0.307 | [10] 0.147

MINDY2 (UniProt Q8NBR6)
inactive: ibrutinib 0.054 | [11] 0.043 | ralimetinib 0.023 | [1] -0.023 | [2] 0.006 | [9] -0.039 | [4] 0.109 | [12] -0.04 | [13] -0.089 | barasertib -0.034 | [10] -0.004 | volasertib -0.045 | [5] 0.042 | [6] 0.089 | [7] 0 | sotrastaurin -0.083

MGAT1 (UniProt P26572)
inactive: [11] -0.038 | ralimetinib 0.069 | [1] -0.023 | [8] -0.022 | [2] 0.14 | [3] 0.061 | [9] -0.027 | [4] -0.058 | [12] -0.013 | vemurafenib -0.119 | [13] -0.034 | [10] 0.043 | volasertib -0.029 | [5] -0.056 | [6] -0.109 | [7] -0.006 | saracatinib 0.011 | sotrastaurin 0.072

MOCS2 (UniProt O96033)
inactive: [11] 0.065 | ralimetinib -0.193 | [1] 0.126 | [3] -0.032 | [9] -0.072 | [4] 0.172 | [12] -0.031 | [13] 0.107 | volasertib 0.031 | [5] 0.085 | saracatinib 0.023 | sotrastaurin -0.017

MIER3 isoform 2 (UniProt Q7Z3K6)
inactive: ibrutinib -0.128 | ralimetinib 0.055 | [1] -0.008 | [8] 0.023 | [2] -0.202 | [3] -0.069 | [9] 0.004 | [4] -0.037 | vemurafenib -0.033 | barasertib 0.091 | [10] -0.014 | [5] 0.035 | [6] 0.042 | [7] -0.063 | saracatinib -0.012 | sotrastaurin -0.034

MPHOSPH9 (UniProt Q99550)
inactive: ibrutinib 0.001 | [8] 0.123 | [9] -0.087 | vemurafenib 0.022 | barasertib 0.074 | [10] 0.176 | [6] -0.061 | [7] -0.055 | sotrastaurin 0.071

MKKS (UniProt Q9HB66)
inactive: [11] 0.011 | ralimetinib 0.107 | [1] -0.012 | [8] -0.011 | [4] -0.037 | [12] 0 | vemurafenib -0.02 | [13] 0.108 | [10] 0.038 | volasertib -0.094 | [5] 0.045

MMS22L (UniProt Q6ZRQ5)
inactive: ibrutinib -0.025 | [11] 0.049 | [8] -0.085 | [2] 0.007 | [3] -0.042 | [9] -0.049 | [12] 0.007 | vemurafenib -0.044 | [13] 0.013 | barasertib 0.083 | [10] -0.182 | volasertib -0.119 | [6] 0.077 | [7] -0.083 | saracatinib 0.092 | sotrastaurin 0.012

MROH1 (UniProt Q8NDA8)
inactive: ibrutinib -0.025 | ralimetinib -0.064 | [1] -0.13 | [3] -0.019 | [9] 0.162 | [4] 0 | barasertib 0.048 | [10] 0.056 | [5] 0.015 | [6] 0.065 | [7] 0.023 | saracatinib 0.053 | sotrastaurin -0.025

Reprinted from above (2 entries):
MMS22L (UniProt Q6ZRQ5)
inactive: ibrutinib -0.025 | [11] 0.049 | [8] -0.085 | [2] 0.007 | [3] -0.042 | [9] -0.049 | [12] 0.007 | vemurafenib -0.044 | [13] 0.013 | barasertib 0.083 | [10] -0.182 | volasertib -0.119 | [6] 0.077 | [7] -0.083 | saracatinib 0.092 | sotrastaurin 0.012

MROH1 (UniProt Q8NDA8)
inactive: ibrutinib -0.025 | ralimetinib -0.064 | [1] -0.13 | [3] -0.019 | [9] 0.162 | [4] 0 | barasertib 0.048 | [10] 0.056 | [5] 0.015 | [6] 0.065 | [7] 0.023 | saracatinib 0.053 | sotrastaurin -0.025

(further entries)

MKKS (UniProt Q9NPJ1)
inactive: ibrutinib 0.038 | [3] -0.008 | vemurafenib -0.174 | barasertib -0.077 | [10] 0.175 | [6] -0.034 | [7] 0.195 | saracatinib -0.059

MLF1 isoform 3 (UniProt P58340)
inactive: vemurafenib -0.09 | [6] -0.079 | [7] -0.051

MIER2 (UniProt Q8N344)
inactive: ibrutinib 0.039 | ralimetinib 0.057 | [1] 0.047 | [8] 0.106 | [3] -0.078 | [4] -0.051 | vemurafenib 0.084 | barasertib -0.061 | [10] -0.053 | [5] 0 | [6] -0.081 | [7] -0.059 | saracatinib -0.119

MIGA2 (UniProt Q7L4E1)
inactive: ralimetinib -0.008 | [1] -0.065 | [8] -0.016 | [3] 0.038 | [4] 0.061 | [10] -0.22 | [5] -0.038 | saracatinib 0.101

MRPL18 (UniProt Q9H0U6)
inactive: [11] -0.066 | ralimetinib -0.044 | [1] -0.064 | [2] 0.127 | [3] -0.037 | [9] -0.013 | [4] 0.065 | [12] -0.029 | vemurafenib -0.036 | [13] 0 | [10] -0.06 | volasertib -0.084 | [5] 0.026 | [6] 0.084 | [7] -0.02 | saracatinib 0.025 | sotrastaurin 0.068
